Data published in PMC13163806.

Molecular target: T1, Programmed cell death 4 (PDCD4) protein, endogenous (human (endogenous in U343)) (UniProt Q53EL6)
T1 sequence: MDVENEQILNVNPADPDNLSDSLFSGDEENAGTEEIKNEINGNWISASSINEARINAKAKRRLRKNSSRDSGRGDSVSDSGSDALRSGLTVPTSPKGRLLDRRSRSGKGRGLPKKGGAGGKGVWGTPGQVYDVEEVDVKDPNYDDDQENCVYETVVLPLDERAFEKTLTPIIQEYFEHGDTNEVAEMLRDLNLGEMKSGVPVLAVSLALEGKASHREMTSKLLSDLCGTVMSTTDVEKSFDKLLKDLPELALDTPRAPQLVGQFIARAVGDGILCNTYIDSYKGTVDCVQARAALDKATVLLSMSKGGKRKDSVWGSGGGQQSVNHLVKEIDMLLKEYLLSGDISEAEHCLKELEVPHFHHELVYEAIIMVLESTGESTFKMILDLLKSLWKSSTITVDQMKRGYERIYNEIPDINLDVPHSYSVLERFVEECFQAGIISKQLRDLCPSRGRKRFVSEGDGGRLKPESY
Assay: affinity purification with mass spectrometry; endogenous PDCD4 precipitated with PDCD4 antibody on protein G Dynabeads from U343 lysate (RIPA), without crosslinking, basal conditions; FBS-coated beads as control; TMT labelling, LC-MS/MS

Substance	binding
eIF4G, endogenous (human (endogenous in U343))	binds
poly(A)-binding protein (PABP), endogenous (human (endogenous in U343))	binds

Results are given in words; binding and its absence hold for the method and conditions named. Binding seen in cells or lysates may run through a third protein. A yes stands for co-enrichment or nearness to the bait. Other partners may have been found.
